This list was built around the results that the source calls inconclusive (neither active nor inactive); the mix of calls is not that of the screen. Potencies beside an inconclusive call are fits to weak or partial responses and may not hold up. Active and inactive are the calls of the source. Calls follow the shape of the dose curve; as a rule, active = well fitted cell-killing curve with a large enough effect; inconclusive = small, poorly fitted or top-dose-only effect, or effect the other way; inactive = no such curve, though single readings can be large or run the other way.
Experiment: Quantitative High-Throughput drug screen in 47 multiple myeloma cell lines against the NCATS MIPE library collection: KMS12BM_JCRB cell viability assay (AID 1918971); also: nearly all actives have a fitted effect of over 35% in size
Conditions: KMS12BM myeloma viability, CellTiter-Glo ATP, 48 h; series mostly up to 45.8 µM
Summary of the method: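 Viability readout: CellTiter-Glo luminescence following 5 min room-temperature incubation with reagent. Prior exposure: 48 h, 37C, humidified 5% CO2, 500 cells per well.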
In the case of `CC1=C(C)C(=O)C(C(CCCCCC(=O)O)c2ccccc2)=C(C)C1=O` (centres undefined), the Potency is reported as inconclusive: 0.0013 µM [rising, full curve, poor fit].
In the case of `CO[C@H]1C(=O)[C@]2(C)[C@@H](OC)C[C@H]3OC[C@@]3(OC(C)=O)[C@H]2[C@H](OC(=O)c2ccccc2)[C@]2(O)C[C@H](OC(=O)[C@H](O)[C@@H](NC(=O)OC(C)(C)C)c3ccccc3)C(C)=C1C2(C)C`, the Potency is reported as “inactive”.
For `C[C@@H]1CCN(C(=O)CC#N)C[C@H]1N(C)c1ncnc2[nH]ccc12`, the Potency was inconclusive: 2.09 µM [cytotoxic, partial curve, poor fit].
In the case of `CCc1ccc(C=C2SC(=S)NC2=O)cc1`, the Potency is reported as inconclusive: 0.0017 µM [rising, full curve].
With `O=c1c(-c2ccc(O)cc2)coc2cc(O)ccc12` the Potency was inconclusive: 13.2 µM [cytotoxic, partial curve, poor fit].
In the case of `Cc1cccc(C#Cc2ccccc2)n1`, the Potency is reported as active: 18.7 µM.
In the case of `Nc1nc(F)nc2c1ncn2[C@@H]1O[C@H](COP(=O)(O)O)[C@@H](O)[C@H]1O`, the Potency is reported as active: 16.6 µM.
For `O=C(NNC(=O)c1ccc(CNS(=O)(=O)c2ccc(F)c(Cl)c2)cc1)c1ccccc1`, the Potency was inconclusive: 0.0332 µM [rising, full curve, poor fit].
In the case of `O=C(Nc1ccccc1)Nc1ccc(-c2ccc(C(=O)[C@H]3CCC[C@H]3C(=O)O)cc2)cc1`, the Potency is reported as inconclusive: 6.62 µM [cytotoxic, full curve, poor fit].
With `NC1CCC(Nc2nc(Nc3ccc(C(=O)N4CCCCC4)cc3)c3ncn(-c4cccc(F)c4)c3n2)CC1` (centres undefined) the Potency was “inactive”.
With `O=C(O)c1cccc(-c2noc(-c3ccccc3F)n2)c1` the Potency was active: 16.6 µM.
In the case of `O=c1c(O)c(-c2ccc(O)c(O)c2)oc2cc(O)cc(O)c12`, the Potency is reported as inconclusive: 0.0017 µM [cytotoxic, full curve, poor fit].
In the case of `Cc1[nH]c(C=C2C(=O)Nc3ccccc32)c(C)c1CCC(=O)O`, the Potency is reported as active: 5.9 µM.
For `CC1(C)OC2=C(C(=O)c3ccccc3C2=O)[C@H](NCc2ccccc2)[C@H]1O`, the Potency was active: 8.33 µM.
In the case of `C[C@H](Cc1ccc(O)c(O)c1)[C@@H](C)Cc1ccc(O)c(O)c1`, the Potency is reported as active: 16.6 µM.
With `CC[C@@H](C)[C@H](NC(=O)[C@H](CC1CCCCC1)NC(=O)c1ccno1)C(=O)N1CCC2(CCc3ccccc32)CC1` the Potency was active: 9.35 µM.
For `CS(=O)(=O)CCNCc1ccc(-c2ccc3ncnc(Nc4ccc(OCc5cccc(F)c5)c(Cl)c4)c3c2)o1`, the Potency was active: 20.9 µM.
In the case of `CC(C)(C)COc1ccc(-n2cc(C(=O)O)cn2)cc1C#N`, the Potency is reported as “inactive”.
For `CC(=O)Oc1cc2c(s1)CCN(C(C(=O)C1CC1)c1ccccc1F)C2` (centres undefined), the Potency was inconclusive: 1.48 µM [cytotoxic, full curve].
With `COc1cc2c(cc1OC)CN(CCc1ccc(NC(=O)c3cc(OC)c(OC)cc3NC(=O)c3cnc4ccccc4c3)cc1)CC2` the Potency was active: 10.5 µM.
In the case of `CC(=O)Oc1ccccc1C(=O)O`, the Potency is reported as inconclusive: 0.0296 µM [cytotoxic, full curve, poor fit].
In the case of `O=c1c2ccccc2nc2n1CCc1c-2[nH]c2ccccc12`, the Potency is reported as “inactive”.
In the case of `COc1ccc(CC2=NN3C([C@@H](CCc4ccccc4)[C@@H](C)O)=NC(C)C3C(=O)N2)cc1OC` (some centres undefined), the Potency is reported as “inactive”.
With `CCOc1ccc(Cc2cc([C@@H]3O[C@H](CO)[C@@H](O)[C@H](O)[C@@H]3O)ccc2Cl)cc1` the Potency was “inactive”.
In the case of `CN1CCN(C2=Nc3cc(Cl)ccc3Nc3ccccc32)CC1`, the Potency is reported as “inactive”.
With `CCOC1OC(=O)C[C@H]1NC(=O)[C@@H]1CCCN1C(=O)[C@@H](NC(=O)c1ccc(N)c(Cl)c1)C(C)(C)C` (some centres undefined) the Potency was “inactive”.
For `O=C(CCN1CCN(C(=O)OCc2cc(Cl)cc(Cl)c2)CC1)c1ccc2[nH]c(=O)oc2c1`, the Potency was “inactive”.
For `O=C(O)c1cc(=O)c2c(OCC(O)COc3cccc4oc(C(=O)O)cc(=O)c34)cccc2o1`, the Potency was inconclusive: 0.0187 µM [rising, full curve, poor fit].
With `CO[C@H]1O[C@@H]2O[C@@]3(C)CC[C@@H]4[C@@H](C)CC[C@@H]([C@H]1C)[C@@]24OO3` the Potency was active: 3.32 µM.
In the case of `Cc1[nH]c(=O)c(C#N)cc1-c1ccc2nccn2c1`, the Potency is reported as inconclusive: 0.0148 µM [rising, full curve, poor fit].
For `Cc1c(OCC(F)(F)F)ccnc1CS(=O)c1nc2ccccc2[nH]1` (centres undefined), the Potency was “inactive”.
With `CCCn1c(=O)c2[nH]c(C34CC5CC3C[C@@H](C5)C4)nc2n(CCC)c1=O` the Potency was inconclusive: 16.6 µM [cytotoxic, partial curve, poor fit].
With `C[C@H](NC(=O)[C@@H](O)c1cc(F)cc(F)c1)C(=O)N[C@@H]1C(=O)N(C)c2ccccc2-c2ccccc21` the Potency was inconclusive: 16.6 µM [cytotoxic, partial curve, poor fit].
For `Cc1ccc(NC(=O)c2ccc(CN3CCN(C)CC3)cc2)cc1Nc1nccc(-c2cccnc2)n1`, the Potency was inconclusive: 0.296 µM [rising, full curve, poor fit].
For `Cc1[nH]c(=O)c(C#N)cc1-c1ccncc1`, the Potency was “inactive”.
In the case of `Clc1ccc2nsnc2c1NC1=NCCN1`, the Potency is reported as inconclusive: 0.0047 µM [rising, full curve].
For `COc1ccnc(CS(=O)c2nc3ccc(OC(F)F)cc3[nH]2)c1OC` (centres undefined), the Potency was “inactive”.
In the case of `CCNC(=O)c1noc(-c2cc(C(C)C)c(O)cc2O)c1-c1ccc(CN2CCOCC2)cc1`, the Potency is reported as inconclusive: 0.0662 µM [cytotoxic, full curve, poor fit].
In the case of `CC(C)(O)[C@H]1CC[C@@](C)([C@H]2[C@@H](O)C[C@@]3(C)[C@@H]4C[C@H](O[C@@H]5O[C@H](CO)[C@@H](O)[C@H](O)[C@@H]5O)[C@H]5C(C)(C)[C@@H](O[C@@H]6OC[C@@H](O)[C@H](O)[C@@H]6O)CC[C@@]56C[C@@]46CC[C@]23C)O1`, the Potency is reported as inconclusive: 3.32 µM [cytotoxic, full curve, poor fit].

— PubChem BioAssay (NCATS)
Potency is read from the fitted curve at half-maximal effect.
